Taken from: PubChem BioAssay AID1259308 (NCATS, 2017)
The whole screen tested about 59,000 reagents; this is a part drawn at random. Over the whole deposit, about 1,510 (2.6%) were called active. 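Calls use total luciferase alone and ignore viability, so some active siRNAs may act by altering cell number.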 Reagents against one gene are numbered here.

Purpose: 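Candidate targets for better recombinant protein yield in mammalian cells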 (primary screen)
Cell system: human HEK293 embryonic kidney cells stably expressing firefly luciferase (HEK-CMV-Luc2-Hygro)
Reagent: single siRNA against human genes, 0.8 pmol siRNA per well
Time to read-out: 72 h
Measurement: 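Reporter luminescence and viable-cell signal on separate replicate plates, given as percent of non-targeting control and median/MAD z-scores, plus per-cell luciferase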
Scale: total luciferase, z-score and total luciferase, % of control: higher = more reporter protein produced; luciferase per cell, z-score: higher = more reporter output per viable cell; viable cells, % of control: higher = more viable cells
Hit rule: 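Active when the median/MAD z-score for overall luciferase is greater than 3; a gene was taken forward for validation with new siRNAs if at least two of its three siRNAs passed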
Meaning of the calls: active = raised luciferase; inactive = no rise

target | reagent no. | total luciferase, z-score | total luciferase, % of control | luciferase per cell, z-score | viable cells, % of control | Call
OR6C68 (olfactory receptor family 6 subfamily C member 68) | 1 | -0.701 | 68 | -0.337 | 83 | inactive
OR6C68 (olfactory receptor family 6 subfamily C member 68) | 2 | -0.381 | 74.3 | 0.562 | 71.6 | inactive
OR6C68 (olfactory receptor family 6 subfamily C member 68) | 3 | -0.599 | 70 | -0.368 | 86.2 | inactive
PRR20A (proline rich 20A) | 1 | 2.33 | 128 | 2.3 | 78.2 | inactive
PRR20A (proline rich 20A) | 2 | 0.0617 | 83.1 | 0.375 | 84.1 | inactive
PRR20A (proline rich 20A) | 3 | -0.0511 | 80.9 | -0.743 | 110 | inactive
CD109 (CD109 molecule) | 1 | -0.612 | 69.7 | -0.896 | 98.6 | inactive
CD109 (CD109 molecule) | 2 | 0.823 | 98.3 | 0.315 | 101 | inactive
CD109 (CD109 molecule) | 3 | -0.392 | 74.1 | -0.814 | 103 | inactive
DAB2IP (DAB2 interacting protein) | 1 | -0.604 | 69.9 | -0.815 | 96.8 | inactive
DAB2IP (DAB2 interacting protein) | 2 | -0.413 | 73.7 | 0.388 | 74.3 | inactive
DAB2IP (DAB2 interacting protein) | 3 | 1.74 | 117 | 1.52 | 87.3 | inactive
DUSP15 (dual specificity phosphatase 15) | 1 | -0.534 | 71.3 | -0.801 | 98.3 | inactive
DUSP15 (dual specificity phosphatase 15) | 2 | 1.11 | 104 | 0.888 | 91.9 | inactive
DUSP15 (dual specificity phosphatase 15) | 3 | 0.114 | 84.2 | -0.684 | 113 | inactive
TMIGD2 (transmembrane and immunoglobulin domain containing 2) | 1 | -0.0821 | 80.3 | -0.27 | 96.3 | inactive
TMIGD2 (transmembrane and immunoglobulin domain containing 2) | 2 | -0.0209 | 81.5 | -0.202 | 96 | inactive
TMIGD2 (transmembrane and immunoglobulin domain containing 2) | 3 | 2.03 | 122 | 1.76 | 85.9 | inactive
RBBP6 (RB binding protein 6, ubiquitin ligase) | 1 | -1.46 | 52.9 | -2.07 | 102 | inactive
RBBP6 (RB binding protein 6, ubiquitin ligase) | 2 | 0.28 | 87.5 | 0.73 | 80.6 | inactive
RBBP6 (RB binding protein 6, ubiquitin ligase) | 3 | -1.69 | 48.2 | -1.54 | 80.8 | inactive
TMED6 (transmembrane p24 trafficking protein 6) | 1 | 0.396 | 89.8 | 0.056 | 98.8 | inactive
TMED6 (transmembrane p24 trafficking protein 6) | 2 | 0.383 | 89.5 | 0.572 | 86 | inactive
TMED6 (transmembrane p24 trafficking protein 6) | 3 | 0.453 | 90.9 | -0.22 | 108 | inactive
FCGR2A (Fc gamma receptor IIa) | 1 | 2.29 | 127 | 1.08 | 107 | inactive
FCGR2A (Fc gamma receptor IIa) | 2 | -0.227 | 77.4 | -1.32 | 122 | inactive
FCGR2A (Fc gamma receptor IIa) | 3 | 1.38 | 109 | 1.41 | 84.2 | inactive
EIF3FP3 | 1 | -0.845 | 65.1 | 0.0753 | 71.3 | inactive
EIF3FP3 | 2 | -0.35 | 74.9 | -0.137 | 86.8 | inactive
EIF3FP3 | 3 | -1.62 | 49.7 | -2.13 | 97.3 | inactive
XTBD1 (XRN2 binding domain containing 1) | 1 | -0.576 | 70.4 | -0.157 | 82 | inactive
XTBD1 (XRN2 binding domain containing 1) | 2 | -0.43 | 73.3 | -0.11 | 84.3 | inactive
XTBD1 (XRN2 binding domain containing 1) | 3 | -1.19 | 58.1 | -0.626 | 76.6 | inactive
DNAJC24 (DnaJ heat shock protein family (Hsp40) member C24) | 1 | -1.01 | 61.7 | 1.44 | 47.2 | inactive
DNAJC24 (DnaJ heat shock protein family (Hsp40) member C24) | 2 | -0.113 | 79.6 | -0.163 | 92.9 | inactive
DNAJC24 (DnaJ heat shock protein family (Hsp40) member C24) | 3 | -0.576 | 70.4 | -0.114 | 81.1 | inactive
FOXH1 (forkhead box H1) | 1 | -0.0113 | 81.7 | -0.855 | 114 | inactive
FOXH1 (forkhead box H1) | 2 | 0.724 | 96.3 | 0.0058 | 107 | inactive
FOXH1 (forkhead box H1) | 3 | 0.689 | 95.6 | 0.397 | 96.2 | inactive
ATF4P3 (activating transcription factor 4 pseudogene 3) | 1 | 0.45 | 90.8 | 0.495 | 89.1 | inactive
ATF4P3 (activating transcription factor 4 pseudogene 3) | 2 | -0.297 | 76 | -0.0154 | 85.2 | inactive
ATF4P3 (activating transcription factor 4 pseudogene 3) | 3 | -0.927 | 63.5 | -0.503 | 80.9 | inactive
HNF4A (hepatocyte nuclear factor 4 alpha) | 1 | 0.282 | 87.5 | -0.187 | 103 | inactive
HNF4A (hepatocyte nuclear factor 4 alpha) | 2 | -1.5 | 52 | 0.122 | 56.3 | inactive
HNF4A (hepatocyte nuclear factor 4 alpha) | 3 | 0.0198 | 82.3 | -0.336 | 100 | inactive
RASGEF1B (RasGEF domain family member 1B) | 1 | 0.985 | 101 | 0.217 | 107 | inactive
RASGEF1B (RasGEF domain family member 1B) | 2 | -0.174 | 78.4 | -0.436 | 98.3 | inactive
RASGEF1B (RasGEF domain family member 1B) | 3 | 1.59 | 114 | 1.43 | 87.2 | inactive
ARX (aristaless related homeobox) | 1 | -0.273 | 76.5 | -0.316 | 92.8 | inactive
ARX (aristaless related homeobox) | 2 | 1.77 | 117 | 1.01 | 100 | inactive
ARX (aristaless related homeobox) | 3 | 0.308 | 88 | 0.2 | 93.3 | inactive
ANTXR2 (ANTXR cell adhesion molecule 2) | 1 | 0.295 | 87.8 | 0.967 | 76 | inactive
ANTXR2 (ANTXR cell adhesion molecule 2) | 2 | 0.98 | 101 | 0.769 | 92.5 | inactive
ANTXR2 (ANTXR cell adhesion molecule 2) | 3 | 3.67 | 155 | 2 | 102 | active
HCP5 (HLA complex P5) | 1 | -0.753 | 66.9 | -0.234 | 79.5 | inactive
HCP5 (HLA complex P5) | 2 | -1.15 | 59 | -0.918 | 83.9 | inactive
HCP5 (HLA complex P5) | 3 | -0.566 | 70.6 | -0.639 | 93.4 | inactive

9 of these entries in another layout.
RBBP6 (RB binding protein 6, ubiquitin ligase) #2
- total luciferase, z-score: 0.28
- total luciferase, % of control: 87.5
- luciferase per cell, z-score: 0.73
- viable cells, % of control: 80.6
- Call: inactive

RBBP6 (RB binding protein 6, ubiquitin ligase) #3
- total luciferase, z-score: -1.69
- total luciferase, % of control: 48.2
- luciferase per cell, z-score: -1.54
- viable cells, % of control: 80.8
- Call: inactive

TMED6 (transmembrane p24 trafficking protein 6) #1
- total luciferase, z-score: 0.396
- total luciferase, % of control: 89.8
- luciferase per cell, z-score: 0.056
- viable cells, % of control: 98.8
- Call: inactive

TMED6 (transmembrane p24 trafficking protein 6) #2
- total luciferase, z-score: 0.383
- total luciferase, % of control: 89.5
- luciferase per cell, z-score: 0.572
- viable cells, % of control: 86
- Call: inactive

TMED6 (transmembrane p24 trafficking protein 6) #3
- total luciferase, z-score: 0.453
- total luciferase, % of control: 90.9
- luciferase per cell, z-score: -0.22
- viable cells, % of control: 108
- Call: inactive

FCGR2A (Fc gamma receptor IIa) #1
- total luciferase, z-score: 2.29
- total luciferase, % of control: 127
- luciferase per cell, z-score: 1.08
- viable cells, % of control: 107
- Call: inactive

FCGR2A (Fc gamma receptor IIa) #2
- total luciferase, z-score: -0.227
- total luciferase, % of control: 77.4
- luciferase per cell, z-score: -1.32
- viable cells, % of control: 122
- Call: inactive

FCGR2A (Fc gamma receptor IIa) #3
- total luciferase, z-score: 1.38
- total luciferase, % of control: 109
- luciferase per cell, z-score: 1.41
- viable cells, % of control: 84.2
- Call: inactive

EIF3FP3 #1
- total luciferase, z-score: -0.845
- total luciferase, % of control: 65.1
- luciferase per cell, z-score: 0.0753
- viable cells, % of control: 71.3
- Call: inactive
